The values that follow come from the supplement of paper PMC12819154, “High-throughput peptide-centric local stability assay extends protein–ligand identification to membrane proteins, tissues and bacteria” (Nature Structural & Molecular Biology, 2025).

Protein sequences, listed by entry. Tags and fused reporters are not part of them. Lines headed by an entry give the natural chain unless they say otherwise; changes in a name come on top.
UniProt Q8VEG4: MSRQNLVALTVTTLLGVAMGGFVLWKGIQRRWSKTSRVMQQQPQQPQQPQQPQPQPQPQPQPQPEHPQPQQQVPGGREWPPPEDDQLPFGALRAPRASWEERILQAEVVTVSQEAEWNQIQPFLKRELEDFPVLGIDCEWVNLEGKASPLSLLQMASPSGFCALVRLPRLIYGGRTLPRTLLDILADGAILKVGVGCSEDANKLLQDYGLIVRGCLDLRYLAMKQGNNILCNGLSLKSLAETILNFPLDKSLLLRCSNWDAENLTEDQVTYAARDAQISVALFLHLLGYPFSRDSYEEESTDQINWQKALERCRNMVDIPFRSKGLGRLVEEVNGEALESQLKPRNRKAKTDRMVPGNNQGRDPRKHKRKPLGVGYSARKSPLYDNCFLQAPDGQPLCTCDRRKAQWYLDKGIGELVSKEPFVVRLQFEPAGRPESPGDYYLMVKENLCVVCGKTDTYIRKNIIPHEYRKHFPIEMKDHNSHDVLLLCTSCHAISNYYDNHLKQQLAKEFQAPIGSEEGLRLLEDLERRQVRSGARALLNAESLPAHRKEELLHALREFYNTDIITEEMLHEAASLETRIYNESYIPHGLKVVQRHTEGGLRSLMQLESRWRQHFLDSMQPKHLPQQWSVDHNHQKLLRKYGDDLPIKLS
UniProt Q8VE37: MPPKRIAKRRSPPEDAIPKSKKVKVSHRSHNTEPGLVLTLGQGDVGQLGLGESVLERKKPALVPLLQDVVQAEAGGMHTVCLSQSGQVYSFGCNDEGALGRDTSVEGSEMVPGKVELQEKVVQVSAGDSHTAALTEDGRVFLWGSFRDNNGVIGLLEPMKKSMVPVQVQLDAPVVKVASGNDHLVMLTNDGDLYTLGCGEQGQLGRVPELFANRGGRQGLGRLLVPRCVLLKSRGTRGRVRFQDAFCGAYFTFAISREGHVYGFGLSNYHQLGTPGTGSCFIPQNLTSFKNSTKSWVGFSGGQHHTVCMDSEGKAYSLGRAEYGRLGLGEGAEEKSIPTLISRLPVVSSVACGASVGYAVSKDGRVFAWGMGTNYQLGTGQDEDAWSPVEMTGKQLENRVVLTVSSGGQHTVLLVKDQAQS
UniProt Q8R3R5: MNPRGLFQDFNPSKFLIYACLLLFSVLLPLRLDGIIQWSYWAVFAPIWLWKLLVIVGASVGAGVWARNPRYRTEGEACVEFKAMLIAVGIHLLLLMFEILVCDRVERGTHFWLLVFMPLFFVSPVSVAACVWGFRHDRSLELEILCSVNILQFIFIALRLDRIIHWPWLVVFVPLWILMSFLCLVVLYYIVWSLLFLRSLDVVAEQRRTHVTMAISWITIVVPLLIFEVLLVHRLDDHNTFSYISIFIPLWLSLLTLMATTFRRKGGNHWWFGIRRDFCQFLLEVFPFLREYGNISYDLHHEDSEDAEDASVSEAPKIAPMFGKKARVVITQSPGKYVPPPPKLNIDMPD
UniProt Q8VE73: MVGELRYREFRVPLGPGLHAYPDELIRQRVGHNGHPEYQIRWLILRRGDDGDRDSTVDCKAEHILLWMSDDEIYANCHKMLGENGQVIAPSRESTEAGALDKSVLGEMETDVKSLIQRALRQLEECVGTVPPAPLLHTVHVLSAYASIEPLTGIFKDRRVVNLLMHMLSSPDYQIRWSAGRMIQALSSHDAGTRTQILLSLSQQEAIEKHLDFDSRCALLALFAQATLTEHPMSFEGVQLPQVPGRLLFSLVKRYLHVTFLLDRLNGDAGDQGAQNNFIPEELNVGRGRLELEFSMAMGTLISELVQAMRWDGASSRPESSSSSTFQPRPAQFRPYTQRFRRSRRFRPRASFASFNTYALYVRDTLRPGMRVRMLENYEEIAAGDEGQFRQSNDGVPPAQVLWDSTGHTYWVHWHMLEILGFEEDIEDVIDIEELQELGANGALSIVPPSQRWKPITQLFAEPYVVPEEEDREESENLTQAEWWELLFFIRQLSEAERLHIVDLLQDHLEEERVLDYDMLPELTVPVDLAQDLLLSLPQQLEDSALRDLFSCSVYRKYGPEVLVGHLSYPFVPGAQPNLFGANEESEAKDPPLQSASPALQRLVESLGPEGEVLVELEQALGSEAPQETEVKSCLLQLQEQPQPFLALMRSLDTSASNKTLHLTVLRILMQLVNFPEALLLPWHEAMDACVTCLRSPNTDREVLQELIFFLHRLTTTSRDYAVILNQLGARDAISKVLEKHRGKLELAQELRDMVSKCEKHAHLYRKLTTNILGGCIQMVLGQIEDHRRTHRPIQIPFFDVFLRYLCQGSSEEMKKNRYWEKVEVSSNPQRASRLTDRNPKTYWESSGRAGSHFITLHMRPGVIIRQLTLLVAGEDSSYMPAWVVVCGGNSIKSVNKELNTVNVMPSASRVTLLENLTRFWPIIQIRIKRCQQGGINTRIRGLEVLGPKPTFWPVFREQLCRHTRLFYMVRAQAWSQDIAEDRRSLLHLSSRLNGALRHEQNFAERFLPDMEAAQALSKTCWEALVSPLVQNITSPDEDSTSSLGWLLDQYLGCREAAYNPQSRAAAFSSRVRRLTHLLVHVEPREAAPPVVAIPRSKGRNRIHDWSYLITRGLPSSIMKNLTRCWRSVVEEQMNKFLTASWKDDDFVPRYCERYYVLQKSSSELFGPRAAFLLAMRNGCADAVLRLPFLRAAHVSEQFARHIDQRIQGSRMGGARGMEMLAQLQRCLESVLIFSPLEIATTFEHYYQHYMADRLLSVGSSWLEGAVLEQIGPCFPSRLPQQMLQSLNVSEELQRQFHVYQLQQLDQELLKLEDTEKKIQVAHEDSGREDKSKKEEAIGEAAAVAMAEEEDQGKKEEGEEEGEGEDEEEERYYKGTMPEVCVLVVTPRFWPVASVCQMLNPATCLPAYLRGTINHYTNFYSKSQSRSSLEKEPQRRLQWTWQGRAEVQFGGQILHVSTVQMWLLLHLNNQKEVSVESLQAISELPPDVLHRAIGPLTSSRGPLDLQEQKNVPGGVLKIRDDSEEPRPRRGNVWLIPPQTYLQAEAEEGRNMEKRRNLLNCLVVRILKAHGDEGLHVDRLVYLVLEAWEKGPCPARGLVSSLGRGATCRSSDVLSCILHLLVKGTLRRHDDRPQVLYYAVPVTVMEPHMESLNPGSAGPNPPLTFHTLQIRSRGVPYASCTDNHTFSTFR
UniProt Q8VBV7: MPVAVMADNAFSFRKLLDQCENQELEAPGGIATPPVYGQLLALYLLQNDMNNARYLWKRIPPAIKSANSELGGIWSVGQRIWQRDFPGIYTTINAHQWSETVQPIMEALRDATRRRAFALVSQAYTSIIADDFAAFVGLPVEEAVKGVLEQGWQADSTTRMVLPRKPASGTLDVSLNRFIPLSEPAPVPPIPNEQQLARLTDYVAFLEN
UniProt Q8VDC0: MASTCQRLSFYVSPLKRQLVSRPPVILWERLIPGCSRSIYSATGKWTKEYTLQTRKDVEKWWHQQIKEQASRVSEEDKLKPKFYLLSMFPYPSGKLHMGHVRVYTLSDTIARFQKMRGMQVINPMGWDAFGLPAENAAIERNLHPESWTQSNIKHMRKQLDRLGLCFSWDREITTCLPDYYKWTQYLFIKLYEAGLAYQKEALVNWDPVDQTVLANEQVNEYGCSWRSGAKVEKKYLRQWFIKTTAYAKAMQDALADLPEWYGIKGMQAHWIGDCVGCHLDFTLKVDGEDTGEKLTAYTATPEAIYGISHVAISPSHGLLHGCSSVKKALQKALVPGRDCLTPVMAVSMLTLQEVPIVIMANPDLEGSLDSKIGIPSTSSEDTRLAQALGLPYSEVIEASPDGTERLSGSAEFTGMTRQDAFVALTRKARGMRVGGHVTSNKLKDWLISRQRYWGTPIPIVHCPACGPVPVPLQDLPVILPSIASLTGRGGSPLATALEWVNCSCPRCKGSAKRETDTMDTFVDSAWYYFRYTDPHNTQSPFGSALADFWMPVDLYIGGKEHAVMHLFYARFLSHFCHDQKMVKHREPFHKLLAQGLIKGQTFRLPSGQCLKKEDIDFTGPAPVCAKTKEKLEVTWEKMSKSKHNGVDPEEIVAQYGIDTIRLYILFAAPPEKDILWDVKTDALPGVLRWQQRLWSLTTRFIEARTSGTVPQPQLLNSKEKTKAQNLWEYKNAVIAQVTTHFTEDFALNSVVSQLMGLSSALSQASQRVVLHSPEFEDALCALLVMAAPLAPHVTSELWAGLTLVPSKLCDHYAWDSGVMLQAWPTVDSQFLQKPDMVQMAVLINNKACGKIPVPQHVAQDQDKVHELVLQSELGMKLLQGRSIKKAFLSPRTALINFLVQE

This is one part of the list. Most entries show no effect beyond the scatter of the controls.

Compound in the assay: CN[C@@H]1C[C@H]2O[C@@](C)([C@@H]1OC)n1c3ccccc3c3c4c(c5c6ccccc6n2c5c31)C(=O)NC4 [staurosporine]
The assay can be described thus: log2 fold change of tryptic peptide abundance, ligand vs vehicle (limited proteolysis) (log2 ratio); higher = more trypsin-susceptible (destabilized). As to conditions: ligand concentration: 20 uM; sample: mouse liver crude lysate; replicate design: treated separately.
On to “UniProt Q8VEG4 (peptide sequence: HFPIEMK, peptide start residue: 471)”, for which the log2 fold change was 0.596.
As for “UniProt Q8VE37 (peptide sequence: VPELFANR, peptide start residue: 207)”, the log2 fold change was -0.232.
On to “UniProt Q8R3R5 (peptide sequence: IAPMFGKK, peptide start residue: 318)”, for which the log2 fold change was 0.137.
Take “UniProt Q8VE73 (peptide sequence: TLHLTVLR, peptide start residue: 660)”: the log2 fold change turned out to be 0.221.
Take “UniProt Q8VBV7 (peptide sequence: KPASGTLDVSLNR, peptide start residue: 166)”: the log2 fold change was -0.089.
For “UniProt Q8VDC0 (peptide sequence: LKDWLISR, peptide start residue: 443)” the value was 0.384.
